# Results of single-concentration screens

By UniProt entry, the sequences of proteins in these tests, tags left out.
UniProt P9WFT3, whole entry: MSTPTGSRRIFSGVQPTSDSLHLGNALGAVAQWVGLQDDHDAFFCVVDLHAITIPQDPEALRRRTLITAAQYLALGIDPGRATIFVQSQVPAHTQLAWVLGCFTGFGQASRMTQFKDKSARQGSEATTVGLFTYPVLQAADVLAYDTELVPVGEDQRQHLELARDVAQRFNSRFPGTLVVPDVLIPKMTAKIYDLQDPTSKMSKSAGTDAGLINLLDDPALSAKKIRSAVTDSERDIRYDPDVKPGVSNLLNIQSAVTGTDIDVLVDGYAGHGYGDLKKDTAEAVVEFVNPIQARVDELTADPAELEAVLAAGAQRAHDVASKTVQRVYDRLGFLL

Data taken from ChEMBL document CHEMBL3988442, “University of Dundee, Small-Polar-MMV Screening Library” (2021).

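Tryptophan-tRNA ligase, Mycobacterium tuberculosis (UniProt P9WFT3). Enzyme assay of tryptophanyl-tRNA synthetase; the read-out is not stated. Compounds at 10 µM. Higher most likely means stronger inhibition; the record gives no direction and few retests gave an IC50. About 65,000 compounds were tested under these conditions; 0.098% (about 64) showed 50% or more at least once.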

The filed quantity is “Percent Effect” (%). How 0% and 100% were set is not recorded. Most values in the screen are low, and negative values occur. This is an unselected part of the compounds tested.

With Cc1oc(-c2ccsc2)nc1CC(=O)NCCS(C)(=O)=O the screen gave -0.58%.
With CCCN1CCCn2nc(CNC(=O)CC3CCS(=O)(=O)C3)cc2C1 (centres unmarked) the screen gave -0.9279%.
With COc1ccc(CNC(=O)N2CCN(CC(O)C3CC3)CC2)cc1 (centres unmarked) the screen gave 1.527%.
With CCN(CC)c1ccc2ccc(C(=O)N(CCOC)CCOC)cn12 the screen gave -0.2907%.
With CC(C)c1nccn1CCC(=O)N1CCCC1c1cccn1C (centres unmarked) the screen gave -0.4938%.
With N#Cc1cccc(C(=O)N2CCC3(CCC(=O)N(C4CC4)C3)CC2)c1 the screen gave 7.534%.
With Cc1ccc(CC(=O)N2CCCN(Cc3nccn3C)CC2)cn1 the screen gave -1.874%.
With CC(C)C(NCc1ccc(Cn2cncn2)cc1)c1ccc(F)cn1 (centres unmarked) the screen gave 5.139%.
With Cc1ccc(CNc2cc3[nH]c(O)nc3cc2C)cc1 the screen gave 4.976%.
With CCc1nnc(CN(C)C2CCCN(Cc3noc(C4CC4)n3)C2)o1 (centres unmarked) the screen gave 1.473%.
With Cc1cnc(C(=O)N2CCCC(n3ccnc3C)C2)cn1 (centres unmarked) the screen gave 7.31%.
With Cc1cccc(CN2CCCC(O)(CNCCc3c[nH]cn3)C2=O)c1 (centres unmarked) the screen gave 3.119%.
With COc1ccccc1C1SCC(=O)Nc2n[nH]cc21 (centres unmarked) the screen gave -2.225%.
With CSc1ncccc1C(=O)NCCC(O)c1cc(C)oc1C (centres unmarked) the screen gave -0.3799%.
With CCC(CO)N(Cc1ccco1)C(=O)c1ccccc1NC (centres unmarked) the screen gave -5.131%.
With COCCN1C[C@@H]2CN(c3ncc(F)cn3)C[C@@H]2C1=O the screen gave -0.6427%.
With Cn1cc([C@@H]2CN(S(=O)(=O)c3cccs3)C[C@H]2N)c2ccncc21 the screen gave -5.805%.
With Cc1ccc(CN(C)C(=O)CN2CCc3ccccc3C2)o1 the screen gave 2.251%.
With CCc1nnc2n1CCN(CC(O)c1ccc3c(c1)OCCO3)C2 (centres unmarked) the screen gave 5.322%.
With O=C(NCCNc1ncccn1)C1CCN(c2ncccn2)CC1 the screen gave -0.2916%.
With CCN(C)c1ncnc2c1CCN(C(=O)c1ccsc1)CC2 the screen gave -2.651%.
With CN1CCN(C(=O)C2CCN(c3cccnn3)C2)CC1 (centres unmarked) the screen gave -1.913%.
With CN(Cc1ccc(F)cc1)C(=O)Nc1cccnc1N1CCCC1 the screen gave 3.477%.
With CS(=O)(=O)N1C[C@@H]2CCN(C(=O)c3ccco3)[C@@H]2C1 the screen gave -3.968%.
With COCc1ccc(CNC(=O)CN2CCc3ccccc32)cc1 the screen gave -0.08818%.
With Cc1cc(CN2CCN(Cc3ccccc3F)CC2)no1 the screen gave -0.2447%.
With O=C(Cc1ccccn1)N1C[C@H]2CCC[C@@]2(COc2ccccn2)C1 the screen gave -5.057%.
With CC(=O)Nc1ccc2nc(-c3nccn3CCCN(C)C)ccc2c1 the screen gave 2.094%.
With Cc1ccccc1C(=O)NC[C@@H]1CCN(C(=O)c2cscn2)C[C@H]1O the screen gave 11.55%.
With CC(NCC(=O)N1CCc2sccc2C1)c1ccccc1F (centres unmarked) the screen gave 3.366%.
With CN(C)C(=O)N[C@H]1CN(Cc2ccc3c(c2)OCO3)[C@@H]2CCCO[C@H]12 the screen gave -1.658%.
With COc1ccccc1C(=O)N1CCN(C(=O)CCn2ccnc2)CC1 the screen gave -3.466%.
With CC(C)c1nn(C)c(N(C)C)c1CNC1CCc2cc(F)ccc21 (centres unmarked) the screen gave -1.22%.
With Cc1ccc(NS(=O)(=O)c2c[nH]c3ncccc23)nc1 the screen gave 6.096%.
With O=C(N[C@@H]1CN(c2ncccn2)C[C@@H]2CCCO[C@@H]21)c1cnccn1 the screen gave -0.1049%.
With Fc1cnc(N2CCCn3c(nnc3Cn3cccn3)C2)nc1 the screen gave 20.52%.
With Cc1nc(CN2CCCN(C(=O)c3c(C)noc3C)CC2)cs1 the screen gave 1.814%.
With Cc1csc(N2CCCN(C(=O)Cc3cccs3)CC2)n1 the screen gave 14.97%.
With COc1c(F)cccc1C(=O)NC(C)c1cnn(C)c1 (centres unmarked) the screen gave -3.715%.
With CN(C)c1cc(CNC(=O)C2COc3ccccc3O2)ccn1 (centres unmarked) the screen gave -1.125%.
With COCCC1(CO)CCCN(Cc2ccc(C(F)(F)F)cc2)C1 (centres unmarked) the screen gave -6.032%.
With COc1cc(OC)cc(-n2ccnc2-c2cc3n(n2)CCNC3)c1 the screen gave 1.027%.
With COc1ccc(CCCC(=O)N2C[C@H](C3CC3)[C@@H](N(C)C)C2)cc1 the screen gave -0.9662%.
With Cc1occc1C(=O)N1CCN2C[C@H](Oc3cccnc3)C[C@H]2C1 the screen gave -4.104%.
With COc1ccccc1C(C)(C)NC(=O)c1cc(NC(C)=O)ccc1F the screen gave 0.8043%.

Some entries from above, unchanged:

| compound | effect |
|---|---|
| `COc1ccccc1C(C)(C)NC(=O)c1cc(NC(C)=O)ccc1F` | 0.8043 |
| `COc1cc(OC)cc(-n2ccnc2-c2cc3n(n2)CCNC3)c1` | 1.027 |
| `CC(NCC(=O)N1CCc2sccc2C1)c1ccccc1F` (centres unmarked) | 3.366 |